Results: paper doi:10.64898/2025.12.01.691266
Results are given in words; binding and its absence hold for the method and conditions named. In cells and extracts the contact can be indirect. Some results given as binding are weak or reduced against the parent protein; the word gives no strength. For some assays here: Where a sequence is shown, tags or fusion partners need not be part of it.

By UniProt entry, the sequences of proteins in these tests, tags left out. Where a name states a change or a piece, a line headed by the entry shows the natural chain unless it says otherwise.
UniProt Q13547: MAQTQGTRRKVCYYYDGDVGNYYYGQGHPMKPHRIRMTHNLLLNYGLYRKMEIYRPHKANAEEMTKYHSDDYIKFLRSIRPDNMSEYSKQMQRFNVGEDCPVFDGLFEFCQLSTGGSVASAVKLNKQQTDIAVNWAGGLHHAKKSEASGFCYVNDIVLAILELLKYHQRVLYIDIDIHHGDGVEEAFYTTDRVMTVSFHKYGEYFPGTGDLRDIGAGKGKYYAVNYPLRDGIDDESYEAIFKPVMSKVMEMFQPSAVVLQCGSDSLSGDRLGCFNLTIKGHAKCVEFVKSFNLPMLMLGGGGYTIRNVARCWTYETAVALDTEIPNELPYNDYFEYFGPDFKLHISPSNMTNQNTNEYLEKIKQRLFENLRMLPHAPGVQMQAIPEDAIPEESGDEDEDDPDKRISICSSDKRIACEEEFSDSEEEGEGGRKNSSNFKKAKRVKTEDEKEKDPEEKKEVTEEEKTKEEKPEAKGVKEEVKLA
UniProt Q15796: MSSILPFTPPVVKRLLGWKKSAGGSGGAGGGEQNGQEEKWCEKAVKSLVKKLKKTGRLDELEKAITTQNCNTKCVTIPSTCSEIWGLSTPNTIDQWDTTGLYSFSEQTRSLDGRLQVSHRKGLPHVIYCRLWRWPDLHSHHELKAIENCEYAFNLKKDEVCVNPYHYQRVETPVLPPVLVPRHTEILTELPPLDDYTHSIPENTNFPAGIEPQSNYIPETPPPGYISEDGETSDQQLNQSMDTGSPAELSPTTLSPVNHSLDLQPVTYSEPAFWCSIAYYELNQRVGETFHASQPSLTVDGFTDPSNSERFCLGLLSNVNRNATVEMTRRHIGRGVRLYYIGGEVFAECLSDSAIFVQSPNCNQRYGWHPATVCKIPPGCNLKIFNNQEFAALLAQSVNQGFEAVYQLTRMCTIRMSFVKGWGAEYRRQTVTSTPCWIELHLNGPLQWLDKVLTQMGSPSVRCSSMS
UniProt P84022: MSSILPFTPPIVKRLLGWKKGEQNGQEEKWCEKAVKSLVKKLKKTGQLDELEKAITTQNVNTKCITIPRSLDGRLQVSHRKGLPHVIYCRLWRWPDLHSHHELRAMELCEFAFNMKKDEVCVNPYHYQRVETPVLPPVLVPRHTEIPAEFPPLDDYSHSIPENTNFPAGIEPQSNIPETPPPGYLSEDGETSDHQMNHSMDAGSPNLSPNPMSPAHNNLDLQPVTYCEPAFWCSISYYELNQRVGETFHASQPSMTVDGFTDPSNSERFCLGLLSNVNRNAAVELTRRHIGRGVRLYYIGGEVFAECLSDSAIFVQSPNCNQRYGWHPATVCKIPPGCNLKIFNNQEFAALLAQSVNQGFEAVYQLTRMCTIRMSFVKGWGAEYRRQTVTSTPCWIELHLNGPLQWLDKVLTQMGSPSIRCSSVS
UniProt Q13485: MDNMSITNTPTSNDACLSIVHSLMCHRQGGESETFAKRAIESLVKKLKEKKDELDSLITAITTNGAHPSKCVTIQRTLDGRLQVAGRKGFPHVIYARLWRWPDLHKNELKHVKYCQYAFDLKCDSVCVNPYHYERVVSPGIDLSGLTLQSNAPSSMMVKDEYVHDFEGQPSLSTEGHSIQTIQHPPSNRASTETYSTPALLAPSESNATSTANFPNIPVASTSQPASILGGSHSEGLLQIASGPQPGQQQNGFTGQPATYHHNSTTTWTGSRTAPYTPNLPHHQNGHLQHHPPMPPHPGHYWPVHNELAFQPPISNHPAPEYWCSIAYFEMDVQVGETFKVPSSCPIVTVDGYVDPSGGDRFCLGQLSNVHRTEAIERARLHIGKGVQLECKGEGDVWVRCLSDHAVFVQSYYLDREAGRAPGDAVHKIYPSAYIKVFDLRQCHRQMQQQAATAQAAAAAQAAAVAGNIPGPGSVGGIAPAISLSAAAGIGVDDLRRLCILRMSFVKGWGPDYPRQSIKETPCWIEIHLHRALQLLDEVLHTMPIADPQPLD

Legend:
[1] = biological target: T1, Splicing factor proline- and glutamine-rich (SFPQ) protein (human (endogenous in EA.hy926)) (UniProt P23246); experiment: co-IP
T1 sequence: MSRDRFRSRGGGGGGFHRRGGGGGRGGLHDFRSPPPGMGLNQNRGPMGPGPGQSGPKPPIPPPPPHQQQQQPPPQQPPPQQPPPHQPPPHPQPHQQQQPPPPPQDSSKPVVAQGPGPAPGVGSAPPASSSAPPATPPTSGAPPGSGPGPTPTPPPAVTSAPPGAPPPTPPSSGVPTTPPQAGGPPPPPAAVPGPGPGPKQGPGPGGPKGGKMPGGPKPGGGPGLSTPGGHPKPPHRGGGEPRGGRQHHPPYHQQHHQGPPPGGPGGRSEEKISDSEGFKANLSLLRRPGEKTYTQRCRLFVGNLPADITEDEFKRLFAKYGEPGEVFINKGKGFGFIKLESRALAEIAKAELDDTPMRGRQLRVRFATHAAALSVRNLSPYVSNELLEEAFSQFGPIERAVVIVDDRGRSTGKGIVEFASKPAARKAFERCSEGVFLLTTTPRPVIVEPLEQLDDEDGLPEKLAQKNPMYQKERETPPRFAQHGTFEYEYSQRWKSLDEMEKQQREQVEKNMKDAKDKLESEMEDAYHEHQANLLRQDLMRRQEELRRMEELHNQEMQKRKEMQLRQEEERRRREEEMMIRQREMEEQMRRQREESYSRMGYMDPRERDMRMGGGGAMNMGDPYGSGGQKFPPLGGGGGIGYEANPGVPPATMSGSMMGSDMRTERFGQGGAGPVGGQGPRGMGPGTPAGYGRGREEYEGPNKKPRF

[2] = biological target: T2, HA-SFPQ (UniProt P23246); experiment: co-IP
T2 sequence: T1 sequence

Row | Substance | binding [1] | binding [2]
1 | HDAC1 (from UniProt Q13547 1-482) | no binding | –
2 | Smad2/3 (from UniProt Q15796;P84022) (complex) | binds | binds
3 | Smad4 (from UniProt Q13485 1-552) | binds | binds
